Assay results reported in patent publication US10525115B2 (Immatics Biotechnologies GmbH, priority 2014, dated 2020).

B1: TMBIM4 (protein, UniProt Q9HC24 1-238, looked up)
Protein lifeguard 4: MADPDPRYPRSSIEDDFNYGSSVASATVHIRMAFLRKVYSILSLQVLLTTVTSTVFLYFESVRTFVHESPALILLFALGSLGLIFALILNRHKYPLNLYLLFGFTLLEALTVAVVVTFYDVYIILQAFILTTTVFFGLTVYTLQSKKDFSKFGAGLFALLWILCLSGFLKFFFYSEIMELVLAAAGALLFCGFIIYDTHSLMHKLSPEEYVLAAISLYLDIINLFLHLLRFLEAVNKK
B2: CHIC2 (protein, UniProt Q9UKJ5 1-165, looked up)
Cysteine-rich hydrophobic …: MADFDEIYEEEEDEERALEEQLLKYSPDPVVVRGSGHVTVFGLSNKFESEFPSSLTGKVAPEEFKASINRVNSCLKKNLPVNVRWLLCGCLCCCCTLGCSMWPVICLSKRTRRSIEKLLEWENNRLYHKLCLHWRLSKRKCETNNMMEYVILIEFLPKTPIFRPD
B3: UCKL1 (protein, UniProt Q9NWZ5 1-548, looked up)
Uridine-cytidine kinase-like 1: MAAPPARADADPSPTSPPTARDTPGRQAEKSETACEDRSNAESLDRLLPPVGTGRSPRKRTTSQCKSEPPLLRTSKRTIYTAGRPPWYNEHGTQSKEAFAIGLGGGSASGKTTVARMIIEALDVPWVVLLSMDSFYKVLTEQQQEQAAHNNFNFDHPDAFDFDLIISTLKKLKQGKSVKVPIYDFTTHSRKKDWKTLYGANVIIFEGIMAFADKTLLELLDMKIFVDTDSDIRLVRRLRRDISERGRDIEGVIKQYNKFVKPSFDQYIQPTMRLADIVVPRGSGNTVAIDLIVQHVHSQLEERELSVRAALASAHQCHPLPRTLSVLKSTPQVRGMHTIIRDKETSRDEFIFYSKRLMRLLIEHALSFLPFQDCVVQTPQGQDYAGKCYAGKQITGVSILRAGETMEPALRAVCKDVRIGTILIQTNQLTGEPELHYLRLPKDISDDHVILMDCTVSTGAAAMMAVRVLLDHDVPEDKIFLLSLLMAEMGVHSVAYAFPRVRIITTAVDKRVNDLFRIIPGIGNFGDRYFGTDAVPDGSDEEEVAYTG
B4: METTL7A (protein, UniProt Q9H8H3 30-244, looked up)
Thiol S-methyltransferase …: WICKKWFPYFLVRFTVIYNEQMASKKRELFSNLQEFAGPSGKLSLLEVGCGTGANFKFYPPGCRVTCIDPNPNFEKFLIKSIAENRHLQFERFVVAAGENMHQVADGSVDVVVCTLVLCSVKNQERILREVCRVLRPGGAFYFMEHVAAECSTWNYFWQQVLDPAWHLLFDGCNLTRESWKALERASFSKLKLQHIQAPLSWELVRPHIYGYAVK
B5: RAVER2 (protein, UniProt Q9HCJ3 2-691, looked up)
Ribonucleoprotein PTB-binding …: AAAAGDGGGEGGAGLGSAAGLGPGPGLRGQGPSAEAHEGAPDPMPAALHPEEVAARLQRMQRELSNRRKILVKNLPQDSNCQEVHDLLKDYDLKYCYVDRNKRTAFVTLLNGEQAQNAIQMFHQYSFRGKDLIVQLQPTDALLCITNVPISFTSEEFEELVRAYGNIERCFLVYSEVTGHSKGYGFVEYMKKDFAAKARLELLGRQLGASALFAQWMDVNLLASELIHSKCLCIDKLPSDYRDSEELLQIFSSVHKPVFCQLAQDEGSYVGGFAVVEYSTAEQAEEVQQAADGMTIKGSKVQVSFCAPGAPGRSTLAALIAAQRVMHSNQKGLLPEPNPVQIMKSLNNPAMLQVLLQPQLCGRAVKPAVLGTPHSLPHLMNPSISPAFLHLNKAHQSSVMGNTSNLFLQNLSHIPLAQQQLMKFENIHTNNKPGLLGEPPAVVLQTALGIGSVLPLKKELGHHHGEAHKTSSLIPTQTTITAGMGMLPFFPNQHIAGQAGPGHSNTQEKQPATVGMAEGNFSGSQPYLQSFPNLAAGSLLVGHHKQQQSQPKGTEISSGAASKNQTSLLGEPPKEIRLSKNPYLNLASVLPSVCLSSPASKTTLHKTGIASSILDAISQGSESQHALEKCIAYSPPFGDYAQVSSLRNEKRGSSYLISAPEGGSVECVDQHSQGTGAYYMETYLKKKRVY
B6: STMN3 (protein, UniProt Q9NZ72 1-180, looked up)
Stathmin-3: MASTISAYKEKMKELSVLSLICSCFYTQPHPNTVYQYGDMEVKQLDKRASGQSFEVILKSPSDLSPESPMLSSPPKKKDTSLEELQKRLEAAEERRKTQEAQVLKQLAERREHEREVLHKALEENNNFSRQAEEKLNYKMELSKEIREAHLAALRERLREKELHAAEVRRNKEQREEMSG
B7: MUL1: FLT3-WT specific LiTAA (protein, UniProt Q969V5 1-352, looked up)
Mitochondrial ubiquitin …: MESGGRPSLCQFILLGTTSVVTAALYSVYRQKARVSQELKGAKKVHLGEDLKSILSEAPGKCVPYAVIEGAVRSVKETLNSQFVENCKGVIQRLTLQEHKMVWNRTTHLWNDCSKIIHQRTNTVPFDLVPHEDGVDVAVRVLKPLDSVDLGLETVYEKFHPSIQSFTDVIGHYISGERPKGIQETEEMLKVGATLTGVGELVLDNNSVRLQPPKQGMQYYLSSQDFDSLLQRQESSVRLWKVLALVFGFATCATLFFILRKQYLQRQERLRLKQMQEEFQEHEAQLLSRAKPEDRESLKSACVVCLSSFKSCVFLECGHVCSCTECYRALPEPKKCPICRQAITRVIPLYNS
B8: NGLY1 (protein, UniProt Q96IV0 2-654, looked up)
Peptide-N(4)-(N-acetyl-beta-gl …: AAAALGSSSGSASPAVAELCQNTPETFLEASKLLLTYADNILRNPNDEKYRSIRIGNTAFSTRLLPVRGAVECLFEMGFEEGETHLIFPKKASVEQLQKIRDLIAIERSSRLDGSNKSHKVKSSQQPAASTQLPTTPSSNPSGLNQHTRNRQGQSSDPPSASTVAADSAILEVLQSNIQHVLVYENPALQEKALACIPVQELKRKSQEKLSRARKLDKGINISDEDFLLLELLHWFKEEFFHWVNNVLCSKCGGQTRSRDRSLLPSDDELKWGAKEVEDHYCDACQFSNRFPRYNNPEKLLETRCGRCGEWANCFTLCCRAVGFEARYVWDYTDHVWTEVYSPSQQRWLHCDACEDVCDKPLLYEIGWGKKLSYVIAFSKDEVVDVTWRYSCKHEEVIARRTKVKEALLRDTINGLNKQRQLFLSENRRKELLQRIIVELVEFISPKTPKPGELGGRISGSVAWRVARGEMGLQRKETLFIPCENEKISKQLHLCYNIVKDRYVRVSNNNQTISGWENGVWKMESIFRKVETDWHMVYLARKEGSSFAYISWKFECGSVGLKVDSISIRTSSQTFQTGTVEWKLRSDTAQVELTGDNSLHSYADFSGATEVILEAELSRGDGDVAWQHTQLFRQSLNDHEENCLEIIIKFSDL
B9: QTRTD1 (protein, UniProt Q9H974 1-415, looked up)
Queuine …: MKLSLTKVVNGCRLGKIKNLGKTGDHTMDIPGCLLYTKTGSAPHLTHHTLHNIHGVPAMAQLTLSSLAEHHEVLTEYKEGVGKFIGMPESLLYCSLHDPVSPCPAGYVTNKSVSVWSVAGRVEMTVSKFMAIQKALQPDWFQCLSDGEVSCKEATSIKRVRKSVDRSLLFLDNCLRLQEESEVLQKSVIIGVIEGGDVMEERLRSARETAKRPVGGFLLDGFQGNPTTLEARLRLLSSVTAELPEDKPRLISGVSRPDEVLECIERGVDLFESFFPYQVTERGCALTFSFDYQPNPEETLLQQNGTQEEIKCMDQIKKIETTGCNQEITSFEINLKEKKYQEDFNPLVRGCSCYCCKNHTRAYIHHLLVTNELLAGVLLMMHNFEHYFGFFHYIREALKSDKLAQLKELIHRQAS

Test system: primary AML samples
Assay: HLA class I ligandome analysis (W6/32 immunoaffinity purification, LC-MS/MS) of primary AML samples
Set-up: species or system human
Conditions: for Number of positive AMLs: AML patients (n=15); for rep. frequency: representation frequency in AML patients (n=15); for Number of positive AMLs [rep. frequency]: representation frequency of the source protein (LiTAA) in AML patients (n=15)
[1] = HLA class I ligandome, count for the HLA ligand (LiTAP) or, on protein lines, for the source protein (LiTAA)

| Molecule | Number of positive AMLs (source protein (LiTAA)) | rep. frequency (source protein (LiTAA)) | representation frequency in FLT3-WT ligandomes (FLT3-WT AML n=7, HLA class I) | representation in FLT3-WT ligandomes (positive/total) (FLT3-WT AML n=7, HLA class I) | Number of positive AMLs [1] | Number of positive AMLs [rep. frequency] |
| --- | --- | --- | --- | --- | --- | --- |
| B1 | 3 | [20.0%] | – | – | – | – |
| B2 | 3 | [20.0%] | – | – | – | – |
| B3 | 3 | [20.0%] | – | – | – | – |
| B4 | 3 | [20.0%] | – | – | – | – |
| B5 | 3 | [20.0%] | – | – | – | – |
| B6 | 3 | [20.0%] | – | – | – | – |
| B7 | – | – | 57.1% | 4/7 | 4 | [26.7%] |
| B8 | – | – | – | – | 5 | [33.3%] |
| B9 | 3 | [20.0%] | – | – | – | – |
